This is an account of results in patent publication EP4389762A1, “INHIBITORS OF DUX4 ACTIVITY AND THEIR USE IN THERAPY” (Ospedale San Raffaele S.r.l., priority 2022, dated 2024).

Protein sequences, listed by entry. Tags and fused reporters are not part of them. Residues count along the entry.
UniProt Q9UBX2, residues 1-159: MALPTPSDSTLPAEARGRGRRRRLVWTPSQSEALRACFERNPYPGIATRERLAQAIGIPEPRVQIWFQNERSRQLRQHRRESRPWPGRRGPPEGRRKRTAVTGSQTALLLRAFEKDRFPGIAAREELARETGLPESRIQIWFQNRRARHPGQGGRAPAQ

Experiment [1] deals with T1, 6xHis-DUX4 dbd (UniProt Q9UBX2 1-159).
T1 construct: range 1-159; Expressed in E. coli from pET-GB1 and purified on nickel beads; The limits 1-159 come from the phrase pETGB1-6xHis-DUX4 dbd (residues 1-159); also called DUX4 dbd (HD1+HD2); not shown: 6xHis tag and GB1 solubility peptide of vector pET-GB1
The experiment can be described thus: His pull-down, 6xHis-DUX4 dbd on nickel beads, biotinylated peptide detected with streptavidin.

Experiment [2] deals with T1, 6xHis-DUX4 dbd. The experiment is described as follows: His pull-down, 6xHis-DUX4 dbd on nickel beads, biotinylated peptide detected with streptavidin (Figure 12 legend).

These are yes or no findings as the source states them, for the method shown. Binding seen in cells or lysates may run through a third protein. Some entries that bind do so weakly or less than the wild type.

B1: Peptide 2 (aa. 188-248 of MATR3), biotinylated synthetic peptide (peptide)
peptide: SFDDRGPSLNPVLDYDHGSRSQESGYYDRMDYEDDRLRDGERCRDDSFFGETSHNYHKFDS
modifications: N-terminal biotin; C-terminal amide (-NH2)
In the case of B1, the binding entry in experiment [1] and in experiment [2] was “binds” throughout.

B2: Peptide 3 (aa. 228-287 of MATR3), biotinylated synthetic peptide (peptide)
peptide: ERCRDDSFFGETSHNYHKFDSEYERMGRGPGPLQERSLFEKKRGAPPSSNIEDFHGLLPK
modifications: N-terminal biotin; C-terminal amide (-NH2)
For B2, the binding result in experiment [1] and in experiment [2] was “binds” in each case.
